# Measurements: the supplement of paper PMC12067093, “Discovery and optimisation of a covalent ligand for TRIM25 and its application to targeted protein ubiquitination” (Chemical Science, 2025)
# Chains of the proteins cited; added tags and fusions are not shown. Lines headed by an entry give the natural chain unless they say otherwise; changes in a name come on top.
# UniProt O15040: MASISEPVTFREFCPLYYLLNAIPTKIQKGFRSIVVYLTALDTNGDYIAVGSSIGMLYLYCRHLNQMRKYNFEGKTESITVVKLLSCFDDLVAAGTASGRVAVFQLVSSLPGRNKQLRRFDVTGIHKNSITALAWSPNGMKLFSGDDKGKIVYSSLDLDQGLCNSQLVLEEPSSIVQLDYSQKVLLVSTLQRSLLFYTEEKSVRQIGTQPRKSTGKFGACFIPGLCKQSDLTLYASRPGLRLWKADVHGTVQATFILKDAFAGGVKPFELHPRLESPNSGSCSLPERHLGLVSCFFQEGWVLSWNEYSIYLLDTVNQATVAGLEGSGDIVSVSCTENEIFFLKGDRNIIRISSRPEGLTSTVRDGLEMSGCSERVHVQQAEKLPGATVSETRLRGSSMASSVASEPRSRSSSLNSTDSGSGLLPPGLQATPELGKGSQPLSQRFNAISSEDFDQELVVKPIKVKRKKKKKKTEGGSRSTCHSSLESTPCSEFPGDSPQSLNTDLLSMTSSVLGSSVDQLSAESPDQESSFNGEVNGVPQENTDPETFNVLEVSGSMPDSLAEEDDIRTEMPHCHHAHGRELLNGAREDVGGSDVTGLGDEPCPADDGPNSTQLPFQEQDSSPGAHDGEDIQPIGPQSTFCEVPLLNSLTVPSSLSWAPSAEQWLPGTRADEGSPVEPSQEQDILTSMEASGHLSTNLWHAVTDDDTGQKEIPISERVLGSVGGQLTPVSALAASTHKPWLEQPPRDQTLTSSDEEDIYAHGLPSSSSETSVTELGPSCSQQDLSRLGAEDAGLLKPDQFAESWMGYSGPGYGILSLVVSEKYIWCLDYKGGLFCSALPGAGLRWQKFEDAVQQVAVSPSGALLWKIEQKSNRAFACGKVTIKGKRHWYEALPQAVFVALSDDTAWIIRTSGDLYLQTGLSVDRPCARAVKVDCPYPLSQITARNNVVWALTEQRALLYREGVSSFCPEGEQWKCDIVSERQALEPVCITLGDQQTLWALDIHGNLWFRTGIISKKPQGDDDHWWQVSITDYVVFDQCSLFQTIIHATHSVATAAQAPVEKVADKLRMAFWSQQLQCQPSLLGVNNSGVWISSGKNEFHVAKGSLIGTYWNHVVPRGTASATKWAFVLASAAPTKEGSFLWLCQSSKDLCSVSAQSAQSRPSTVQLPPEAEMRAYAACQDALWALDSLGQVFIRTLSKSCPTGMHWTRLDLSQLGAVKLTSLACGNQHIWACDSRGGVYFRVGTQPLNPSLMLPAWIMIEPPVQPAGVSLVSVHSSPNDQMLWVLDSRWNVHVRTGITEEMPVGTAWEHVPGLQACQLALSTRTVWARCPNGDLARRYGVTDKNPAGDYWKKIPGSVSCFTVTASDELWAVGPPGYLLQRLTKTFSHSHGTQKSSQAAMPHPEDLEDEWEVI
# UniProt Q9Y5J6: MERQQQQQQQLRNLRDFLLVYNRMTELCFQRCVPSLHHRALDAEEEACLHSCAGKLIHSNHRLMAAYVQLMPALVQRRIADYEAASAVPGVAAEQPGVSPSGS
# UniProt Q5TEJ8: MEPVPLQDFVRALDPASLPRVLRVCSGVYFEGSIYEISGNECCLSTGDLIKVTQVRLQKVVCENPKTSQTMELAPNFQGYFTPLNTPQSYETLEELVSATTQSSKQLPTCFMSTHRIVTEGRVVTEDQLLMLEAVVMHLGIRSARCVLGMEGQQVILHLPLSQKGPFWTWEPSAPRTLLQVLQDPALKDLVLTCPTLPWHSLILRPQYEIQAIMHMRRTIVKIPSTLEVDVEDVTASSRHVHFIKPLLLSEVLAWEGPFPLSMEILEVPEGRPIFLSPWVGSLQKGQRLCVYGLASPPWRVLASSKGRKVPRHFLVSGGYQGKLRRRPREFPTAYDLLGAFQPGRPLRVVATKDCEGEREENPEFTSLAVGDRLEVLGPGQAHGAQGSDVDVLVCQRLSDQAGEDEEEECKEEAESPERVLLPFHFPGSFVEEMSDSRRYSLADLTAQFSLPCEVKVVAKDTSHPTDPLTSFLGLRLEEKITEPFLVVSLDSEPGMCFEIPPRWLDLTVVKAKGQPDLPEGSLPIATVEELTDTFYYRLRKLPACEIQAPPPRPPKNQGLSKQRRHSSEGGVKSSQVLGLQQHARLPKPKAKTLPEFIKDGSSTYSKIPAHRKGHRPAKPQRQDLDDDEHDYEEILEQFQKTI
# UniProt O43294, whole entry, looked up: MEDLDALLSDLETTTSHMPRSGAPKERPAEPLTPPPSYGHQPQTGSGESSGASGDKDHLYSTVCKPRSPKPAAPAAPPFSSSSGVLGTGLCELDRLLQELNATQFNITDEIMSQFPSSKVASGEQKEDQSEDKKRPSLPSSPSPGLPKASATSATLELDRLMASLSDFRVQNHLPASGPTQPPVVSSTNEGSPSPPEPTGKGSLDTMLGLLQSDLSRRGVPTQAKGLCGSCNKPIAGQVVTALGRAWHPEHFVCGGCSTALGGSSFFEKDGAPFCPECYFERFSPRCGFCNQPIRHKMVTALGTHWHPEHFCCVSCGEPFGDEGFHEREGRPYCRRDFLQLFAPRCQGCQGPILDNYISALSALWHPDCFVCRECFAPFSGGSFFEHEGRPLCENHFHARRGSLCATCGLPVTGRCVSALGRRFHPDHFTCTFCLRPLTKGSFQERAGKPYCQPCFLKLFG
# UniProt Q86W42: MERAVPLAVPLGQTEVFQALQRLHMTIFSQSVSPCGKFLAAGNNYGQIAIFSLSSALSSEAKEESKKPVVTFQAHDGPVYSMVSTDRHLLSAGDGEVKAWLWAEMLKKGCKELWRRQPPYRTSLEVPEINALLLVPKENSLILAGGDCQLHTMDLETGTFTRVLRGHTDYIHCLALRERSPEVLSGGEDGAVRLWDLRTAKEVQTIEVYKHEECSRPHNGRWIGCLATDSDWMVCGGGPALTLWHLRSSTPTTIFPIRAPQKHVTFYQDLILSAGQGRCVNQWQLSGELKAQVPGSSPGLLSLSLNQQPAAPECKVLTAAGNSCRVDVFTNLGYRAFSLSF
# UniProt O75663: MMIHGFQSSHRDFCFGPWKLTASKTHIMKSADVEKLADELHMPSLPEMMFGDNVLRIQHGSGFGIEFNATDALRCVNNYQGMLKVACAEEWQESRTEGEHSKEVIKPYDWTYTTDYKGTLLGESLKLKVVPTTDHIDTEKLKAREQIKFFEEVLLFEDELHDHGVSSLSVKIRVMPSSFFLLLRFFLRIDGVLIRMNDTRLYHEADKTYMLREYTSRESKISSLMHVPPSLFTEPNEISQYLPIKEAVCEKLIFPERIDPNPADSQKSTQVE
# UniProt P52888, whole entry, looked up: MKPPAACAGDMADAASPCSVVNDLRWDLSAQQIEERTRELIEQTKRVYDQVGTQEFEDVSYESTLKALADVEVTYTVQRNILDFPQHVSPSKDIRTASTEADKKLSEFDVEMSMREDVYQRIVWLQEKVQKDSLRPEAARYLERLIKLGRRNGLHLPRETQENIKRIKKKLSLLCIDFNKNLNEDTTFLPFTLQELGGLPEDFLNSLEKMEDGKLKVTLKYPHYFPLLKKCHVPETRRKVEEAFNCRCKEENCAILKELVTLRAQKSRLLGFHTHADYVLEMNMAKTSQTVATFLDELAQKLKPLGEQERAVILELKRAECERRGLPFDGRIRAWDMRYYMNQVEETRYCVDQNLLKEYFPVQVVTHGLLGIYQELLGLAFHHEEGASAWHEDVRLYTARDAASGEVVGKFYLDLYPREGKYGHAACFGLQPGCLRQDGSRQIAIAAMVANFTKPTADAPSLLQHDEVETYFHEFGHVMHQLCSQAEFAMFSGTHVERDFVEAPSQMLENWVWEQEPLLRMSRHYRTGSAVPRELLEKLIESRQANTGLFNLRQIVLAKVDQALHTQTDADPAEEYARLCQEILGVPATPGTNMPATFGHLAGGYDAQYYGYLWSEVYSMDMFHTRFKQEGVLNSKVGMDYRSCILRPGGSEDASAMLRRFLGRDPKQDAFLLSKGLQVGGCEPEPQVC
# UniProt Q96N21: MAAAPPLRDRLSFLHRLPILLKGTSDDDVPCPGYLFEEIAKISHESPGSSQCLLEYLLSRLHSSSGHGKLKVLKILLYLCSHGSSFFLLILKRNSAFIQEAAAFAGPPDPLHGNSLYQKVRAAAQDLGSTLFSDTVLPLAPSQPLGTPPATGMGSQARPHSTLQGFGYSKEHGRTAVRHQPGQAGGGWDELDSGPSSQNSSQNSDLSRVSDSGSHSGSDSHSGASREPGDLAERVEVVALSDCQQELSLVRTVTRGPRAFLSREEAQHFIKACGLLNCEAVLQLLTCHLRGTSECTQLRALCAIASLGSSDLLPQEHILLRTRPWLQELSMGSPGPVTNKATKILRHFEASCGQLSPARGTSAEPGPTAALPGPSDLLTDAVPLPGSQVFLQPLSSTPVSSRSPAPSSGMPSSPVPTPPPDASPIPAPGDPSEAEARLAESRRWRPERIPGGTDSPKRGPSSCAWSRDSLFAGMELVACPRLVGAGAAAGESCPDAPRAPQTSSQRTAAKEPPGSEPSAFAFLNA
# UniProt Q01085: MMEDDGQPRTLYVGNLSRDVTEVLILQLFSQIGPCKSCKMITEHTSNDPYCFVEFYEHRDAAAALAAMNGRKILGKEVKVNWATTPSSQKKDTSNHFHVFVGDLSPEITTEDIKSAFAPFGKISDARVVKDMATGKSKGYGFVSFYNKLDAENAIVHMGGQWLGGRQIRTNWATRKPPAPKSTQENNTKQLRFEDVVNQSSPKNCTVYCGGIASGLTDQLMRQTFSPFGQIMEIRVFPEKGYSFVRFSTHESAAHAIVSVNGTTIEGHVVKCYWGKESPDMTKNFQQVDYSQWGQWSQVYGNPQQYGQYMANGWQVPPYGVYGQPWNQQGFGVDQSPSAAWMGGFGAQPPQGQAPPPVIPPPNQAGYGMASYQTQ
# UniProt Q6P9B6: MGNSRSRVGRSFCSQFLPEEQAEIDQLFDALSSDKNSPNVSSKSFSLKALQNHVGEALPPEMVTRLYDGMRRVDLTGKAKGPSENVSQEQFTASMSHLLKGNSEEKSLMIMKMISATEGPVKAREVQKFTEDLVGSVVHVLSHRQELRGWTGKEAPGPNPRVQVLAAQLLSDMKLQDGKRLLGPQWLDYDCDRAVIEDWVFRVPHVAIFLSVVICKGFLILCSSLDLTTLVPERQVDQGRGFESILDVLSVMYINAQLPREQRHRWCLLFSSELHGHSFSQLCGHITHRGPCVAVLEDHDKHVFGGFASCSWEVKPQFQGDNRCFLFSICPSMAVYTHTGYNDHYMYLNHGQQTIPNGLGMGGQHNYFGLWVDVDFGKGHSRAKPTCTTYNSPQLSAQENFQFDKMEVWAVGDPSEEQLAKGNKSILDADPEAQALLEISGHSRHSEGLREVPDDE
# UniProt Q5JTD0: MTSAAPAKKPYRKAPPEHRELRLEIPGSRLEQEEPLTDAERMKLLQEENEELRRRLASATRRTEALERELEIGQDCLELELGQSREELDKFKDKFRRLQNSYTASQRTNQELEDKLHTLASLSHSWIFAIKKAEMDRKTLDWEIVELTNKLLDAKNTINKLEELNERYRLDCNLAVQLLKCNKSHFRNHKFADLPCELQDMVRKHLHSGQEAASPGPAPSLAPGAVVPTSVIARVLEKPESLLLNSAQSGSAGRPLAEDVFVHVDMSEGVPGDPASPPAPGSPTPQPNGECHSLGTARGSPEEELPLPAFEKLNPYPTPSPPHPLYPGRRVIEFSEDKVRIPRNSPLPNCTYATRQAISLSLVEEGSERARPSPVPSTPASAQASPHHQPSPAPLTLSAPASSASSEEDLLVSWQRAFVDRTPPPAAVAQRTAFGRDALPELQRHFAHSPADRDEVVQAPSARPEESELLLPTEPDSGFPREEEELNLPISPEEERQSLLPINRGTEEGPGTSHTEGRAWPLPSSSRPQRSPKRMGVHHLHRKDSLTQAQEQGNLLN
# UniProt O43615: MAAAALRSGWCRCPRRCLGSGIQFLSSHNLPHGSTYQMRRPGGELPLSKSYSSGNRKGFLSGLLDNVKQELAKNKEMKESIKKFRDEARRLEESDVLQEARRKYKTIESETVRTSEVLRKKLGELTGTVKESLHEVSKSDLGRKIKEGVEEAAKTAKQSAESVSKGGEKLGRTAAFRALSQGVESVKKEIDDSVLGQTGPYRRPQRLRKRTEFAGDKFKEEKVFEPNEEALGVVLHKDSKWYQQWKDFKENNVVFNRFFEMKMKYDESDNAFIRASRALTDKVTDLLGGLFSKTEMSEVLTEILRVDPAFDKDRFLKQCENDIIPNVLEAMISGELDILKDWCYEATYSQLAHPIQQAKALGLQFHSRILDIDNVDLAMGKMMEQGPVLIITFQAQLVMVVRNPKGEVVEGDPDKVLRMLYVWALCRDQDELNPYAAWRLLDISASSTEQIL
# The list shows a part of the results.
# Compound: Cc1cc(ccc1-c1ccccc1)C(=O)N1CCCN(CC1)C(=O)CCl [compound 10]
# Experiment: probe-labelled cysteine peptide fold change vs DMSO (competition) (log2 fold change); higher = less target engagement (more negative = stronger competition)
# Details: 10 µM; THP-1; incubation time: 4 h
# 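Note: competitive profiling in live THP-1 cells: cysteine peptides tagged with an iodoacetamide desthiobiotin (IA-DTB) probe, intensity after compound treatment relative to DMSO-treated cells.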
row,Target,probe-labelled cysteine peptide fold change
1,TECPR2_O15040_282_LESPNSGSCSLPER (UniProt O15040),-0.157
2,TIMM10B_Q9Y5J6_48+52_ALDAEEEACLHSCAGK (UniProt Q9Y5J6),0.0977
3,THEMIS2_Q5TEJ8_395_LEVLGPGQAHGAQGSDVDVLVCQR (UniProt Q5TEJ8),-0.303
4,TGFB1I1_O43294_431_FHPDHFTCTFCLRPLTK (UniProt O43294),0.18
5,THOC6_Q86W42_214_EVQTIEVYKHEECSRPHNGR (UniProt Q86W42),-0.0668
6,THOC5_Q13769_282_HLPPPLYVLFVQATAYGQACDK (UniProt Q13769),0.435
7,THUMPD3_Q9BV44_434_VCTPTTGR (UniProt Q9BV44),0.0194
8,TIPRL_O75663_14_DFCFGPWK (UniProt O75663),-0.0376
9,THOP1_P52888_321_RAECER (UniProt P52888),0.105
10,TEPSIN_Q96N21_273_ACGLLNCEAVLQLLTCHLR (UniProt Q96N21),0.821
11,THAP10_Q9P2Z0_171_QAAASQITCENELVQTQPHADNPSNTVTSVPTHCEEGPVHK (UniProt Q9P2Z0),-0.544
12,THOP1_P52888_427_YGHAACFGLQPGCLR (UniProt P52888),0.0275
13,TIAL1_Q01085_51_MITEHTSNDPYCFVEFYEHR (UniProt Q01085),-0.0244
14,TGFB1I1_O43294_228+231_GLCGSCNKPIAGQVVTALGR (UniProt O43294),-0.105
15,THAP12_O43422_644_SDLPNPDTLSAELHCWR (UniProt O43422),0.113
16,THADA_Q6YHU6_180_CAGNHIIQTQLMNDLLVGIR (UniProt Q6YHU6),-0.207
17,TEPSIN_Q96N21_479_DSLFAGMELVACPR (UniProt Q96N21),-0.077
18,TGFB1I1_O43294_393_ECFAPFSGGSFFEHEGRPLCENHFHAR (UniProt O43294),0.0627
19,TLDC1_Q6P9B6_310_HVFGGFASCSWEVKPQFQGDNR (UniProt Q6P9B6),0.191
20,TLN1_Q9Y490_1506+1509_HTSALCNSCR (UniProt Q9Y490),0.273
21,TJAP1_Q5JTD0_350_NSPLPNCTYATR (UniProt Q5JTD0),-0.147
22,TICAM1_Q8IUC6_37_TPRPGCQGQDLLHAMVLLK (UniProt Q8IUC6),0.14
23,TIMM44_O43615_343_DWCYEATYSQLAHPIQQAK (UniProt O43615),0.208
